Among all 300,000 compounds or so, about 5,400 (1.8%) were called active. The shares of active, inactive and inconclusive entries below differ from those in the screen. The call rests on the fitted dose curve; tested in HEK293 cells. Potencies of inconclusive entries are doubtful fits and often do not repeat.
Test: qHTS for inhibitors of binding or entry into cells for Marburg Virus
Settings: Marburg virus pseudotyped entry inhibition, cell reporter; activity change, negative = inhibition: at 37.8 µM (top of the series) unless noted
On the % scale 0 is the no-effect control and ±100 the full control effect; potency means the concentration at half of the fitted maximal effect.

Row | Structure (SMILES) | activity change, negative = inhibition | Potency
1 | COc1ccc2[nH]c(=O)c(CN(CCc3cccc(C)c3)C(C)=O)cc2c1 | inactive: 12.8% | –
2 | CCOC(=O)c1cnc(NCc2ccccc2)nc1C | – | inconclusive: 1.83 µM [activator, partial curve]
3 | Cc1cccn2c(Nc3ccccc3)c(-c3cccs3)nc12 | inactive: -11.2% [at 46.1 µM] | –
4 | COc1cccc(NS(=O)(=O)c2ccc3c(c2)[C@H]2C=CC[C@H]2[C@@H](c2ccccc2Cl)N3)c1 | – | inconclusive: 25.1 µM [inhibitor, single point]
5 | O=C(Nc1ccccc1O)c1nc(Cl)ccc1Cl | inactive: 4.1% [at 46.1 µM] | –
6 | OCCCNc1ncnc2scc(-c3ccc(Cl)cc3)c12 | – | inconclusive: 10 µM [inhibitor, partial curve, poor fit]
7 | C=CCn1c(SC(C)C(=O)Nc2ccc(Cl)cn2)nnc1C1CC1 (centres undefined) | inactive: -0.13% [at 46.1 µM] | –
8 | CC1Cc2ccccc2N1CC(=O)Nc1ccc2c(c1)OCO2 (centres undefined) | – | inconclusive: 11.6 µM [inhibitor, partial curve, poor fit]
9 | Cc1cnc(NC(=O)CN2CCN(c3ccccn3)CC2)s1 | inactive: 4.02% | –
10 | Clc1ccc(Oc2nc(Oc3ccc(Cl)cc3)nc(N3CCOCC3)n2)cc1 | – | inconclusive: 25.9 µM [inhibitor, partial curve, poor fit]
11 | COc1ccc(C(=O)Nc2cc3c(cc2C(=O)O)OCCCO3)c(OC)c1 | – | inconclusive: 31.6 µM [activator, single point]
12 | CCN(CC)CCN1C(=O)C(=O)/C(=C(\O)c2ccc(Cl)cc2)[C@@H]1c1ccncc1 | inactive: 1.86% | –
13 | Cc1ccc(NC(=O)CSc2nnc(NC(=O)c3ccc(S(=O)(=O)N4CCOCC4)cc3)s2)cc1 | – | inconclusive: 1.78 µM [activator, partial curve, poor fit]
14 | Cc1cccc(NC(=O)COc2ccccc2C)n1 | – | inconclusive: 4.61 µM [activator, single point]
15 | Cc1ccc(C(=O)NCC(=O)OCC(=O)Nc2cc(C)c(C)cc2[N+](=O)[O-])cc1 | inactive: 16.4% | –
16 | O=C(Nc1cccc(S(=O)(=O)N2CCOCC2)c1)c1ccc(N2CCOCC2)c([N+](=O)[O-])c1 | – | inconclusive: 1 µM [inhibitor, partial curve, poor fit]
17 | CC1CCCCC12NC(=O)N(CC(=O)Nc1ccc(OC(F)F)cc1)C2=O (centres undefined) | – | inconclusive: 0.562 µM [inhibitor, partial curve, poor fit]
18 | Cc1cc(NC(=O)c2cccc(Br)c2)no1 | – | inconclusive: 35.5 µM [activator, single point]
19 | CCOc1ccccc1NC(=O)Cn1nnc(C(=O)NCc2ccco2)c1N | – | inconclusive: 31.6 µM [inhibitor, partial curve, poor fit]

Shown comma-delimited: two of the compounds above
Row,Structure (SMILES),"activity change, negative = inhibition",Potency
1,COc1ccc2[nH]c(=O)c(CN(CCc3cccc(C)c3)C(C)=O)cc2c1,inactive: 12.8%,–
10,Clc1ccc(Oc2nc(Oc3ccc(Cl)cc3)nc(N3CCOCC3)n2)cc1,–,"inconclusive: 25.9 µM [inhibitor, partial curve, poor fit]"

Reference: PubChem BioAssay AID540276 (National Center for Advancing Translational Sciences (NCATS), 2011)
